Results are given in words; binding and its absence hold for the method and conditions named. Some binding calls cover weakened binding; strength is not graded here. For some of these results: Tags and fused reporters may be left off the sequences shown.
How the values were obtained:
[1] = target: BerB, membrane protein of the ABC transporter BerAB of B. thuringiensis (BACTH fusion) (B. thuringiensis) (UniProt Q8RME0); assay: two-hybrid; BACTH (T18/T25 adenylate cyclase fusions) in E. coli BTH101, colonies on LB X-Gal/IPTG agar; 24 h at 30°C, 20 h at RT, 20 h at 18°C
[2] = target: T1, CesD, transmembrane protein of the ABC transporter CesCD (BACTH fusion) (Bacillus cereus F4810/72) (UniProt Q20CI6); assay: as above
T1 sequence: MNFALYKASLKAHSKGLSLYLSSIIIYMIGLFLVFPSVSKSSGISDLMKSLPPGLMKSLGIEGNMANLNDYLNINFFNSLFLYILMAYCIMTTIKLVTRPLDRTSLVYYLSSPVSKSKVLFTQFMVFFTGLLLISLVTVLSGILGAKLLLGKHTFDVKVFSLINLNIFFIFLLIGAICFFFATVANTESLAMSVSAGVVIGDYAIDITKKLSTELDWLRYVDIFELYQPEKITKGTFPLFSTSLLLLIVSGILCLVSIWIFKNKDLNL

[3] = target: BerB, membrane protein of the ABC transporter BerAB of B. thuringiensis (BACTH fusion) (B. thuringiensis) (UniProt Q8RME0); assay: two-hybrid; BACTH in E. coli BTH101, β-galactosidase activity (Miller assay, ONPG, 28°C) of cells from LB-IPTG plates, normalized to the negative control (T18 and T25 alone)
[4] = target: T1, CesD, transmembrane protein of the ABC transporter CesCD (BACTH fusion) (Bacillus cereus F4810/72); assay: as above
[5] = target: BerB, membrane protein of the ABC transporter BerAB of B. thuringiensis (BACTH fusion) (B. thuringiensis) (UniProt Q8RME0); assay: two-hybrid; BACTH (T18/T25 adenylate cyclase fusions) in E. coli BTH101, colonies on LB X-Gal/IPTG agar; 24 h at 30°C, 20 h at RT, 20 h at 18°C; remark: listed apart in the source
[6] = target: CesC, ATPase of the ABC transporter CesCD (BACTH fusion) (Bacillus cereus F4810/72) (UniProt Q20CI7); assay: as above
[7] = target: T1, CesD, transmembrane protein of the ABC transporter CesCD (BACTH fusion) (Bacillus cereus F4810/72); assay: as above; remark: listed apart in the source
[8] = target: BerB, membrane protein of the ABC transporter BerAB of B. thuringiensis (BACTH fusion) (B. thuringiensis) (UniProt Q8RME0); assay: two-hybrid; BACTH in E. coli BTH101, β-galactosidase activity (Miller assay, ONPG, 28°C) of cells from LB-IPTG plates, normalized to the negative control (T18 and T25 alone); remark: listed apart in the source
[9] = target: CesC, ATPase of the ABC transporter CesCD (BACTH fusion) (Bacillus cereus F4810/72) (UniProt Q20CI7); assay: as above
[10] = target: MinD from B. subtilis (BACTH fusion) (B. subtilis) (UniProt Q01464); assay: two-hybrid; BACTH (T18/T25 adenylate cyclase fusions) in E. coli BTH101, colonies on LB X-Gal/IPTG agar; 24 h at 30°C, 20 h at RT, 20 h at 18°C

Measured: binding

BerA, ATPase of the ABC transporter BerAB of B. thuringiensis (BACTH fusion) (from UniProt Q8RME1 1-297)
binds: [1] | [2] | [3] | [4]

B1: CesC, ATPase of the ABC transporter CesCD (BACTH fusion) (natural protein)
chain: MIKIEGLTKEFGNGKGIFDVTFEVKQGEVFGFLGPNGAGKSTTIRHLMGFIKPSKGAATINGFDCWKEADQVKKRVGYLPGEIAFPEEMTAYDFIRLIAGMKGMSDLGRAEEFIEKFQLDMRVHIKKMSKGMKQKLAIVAAFLHDPDILILDEPSTGLDPLMQNILVDFILEEKKCGKTILISSHIFDEIKDTADTICIIKNGKIVESGDLKTLKSAQKRYLKAYFTQEVDVELLQRSNLQIEKVENLVATILIQQNINEIMRELMKYDLINVEIMEPEIKDIFIKHYENR
notes: also called T18-CesC; CesC-T18; source: bacterial two-hybrid (BACTH) fusion, E. coli BTH101; not shown: T18 or T25 fragment of B. pertussis adenylate cyclase (several combinations tested), N-terminal or C-terminal, kept
binds: [5] | [6] | [7] | [8] | [9]

B2: MinD from B. subtilis (BACTH fusion) (protein, UniProt Q01464 1-268)
chain: MGEAIVITSGKGGVGKTTTSANLGTALAILGKRVCLVDTDIGLRNLDVVMGLENRIIYDLVDVVEGRCKMHQALVKDKRFDDLLYLMPAAQTSDKTAVAPEQIKNMVQELKQEFDYVIIDCPAGIEQGYKNAVSGADKAIVVTTPEISAVRDADRIIGLLEQEENIEPPRLVVNRIRNHLMKNGDTMDIDEIVQHLSIDLLGIVADDDEVIKASNHGEPIAMDPKNRASIAYRNIARRILGESVPLQVLEEQNKGMMAKIKSFFGVRS
binds: [10]

Reference: paper PMC7527721, “Beyond Toxin Transport: Novel Role of ABC Transporter for Enzymatic Machinery of Cereulide NRPS Assembly Line” (mBio, 2020)
